Literature values in patent publication US8183383B2, “Protein tyrosine phosphatase 1B inhibitor, preparation methods and uses thereof” (Shanghai Institute of Materia Medica, Chinese Academy of …, priority 2007, dated 2012).
pIC50, pKi: −log10 of the molar value. The structures given here were assigned with low confidence; some may be wrong.

By UniProt entry, the sequences of proteins in these tests, tags left out.
UniProt P18031, whole entry: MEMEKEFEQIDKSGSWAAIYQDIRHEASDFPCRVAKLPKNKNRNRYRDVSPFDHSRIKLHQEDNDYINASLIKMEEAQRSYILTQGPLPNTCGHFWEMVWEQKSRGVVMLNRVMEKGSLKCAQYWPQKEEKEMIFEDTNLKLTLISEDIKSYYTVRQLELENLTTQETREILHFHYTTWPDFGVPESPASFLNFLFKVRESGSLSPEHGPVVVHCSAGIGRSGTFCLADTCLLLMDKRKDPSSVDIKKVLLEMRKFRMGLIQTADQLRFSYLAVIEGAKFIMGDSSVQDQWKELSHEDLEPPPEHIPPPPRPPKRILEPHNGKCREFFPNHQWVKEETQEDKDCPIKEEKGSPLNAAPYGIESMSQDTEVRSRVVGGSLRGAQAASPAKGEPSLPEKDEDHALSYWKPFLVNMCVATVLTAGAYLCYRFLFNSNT

Target: PTP1B (Homo sapiens, UniProt P18031)
Settings: background, selective peptide PTP1B inhibitor; cited from earlier work

**Q.** With `CSCC[C@H](NC(=O)[C@H](Cc1ccc(C(F)(F)P(=O)(O)O)cc1)NC(=O)[C@H](CCC(=O)O)NC(=O)[C@H](CC(=O)O)NC(=O)[C@H](CCC(=O)O)NC(=O)[C@@H](N)CCC(=O)O)C(=O)O` as the compound, how does the pKi read?
**A.** Its pKi is 8.14.

**Q.** With `N[C@@H](CCC(=O)O)C(=O)N[C@@H](Cc1ccc(C(F)(F)P(=O)(O)O)cc1)C(=O)N[C@@H](Cc1ccc(C(F)(F)P(=O)(O)O)cc1)C(=O)O` as the compound, how does the pIC50 read?
**A.** The pIC50 was 7.40.
